Experimental data as given in patent US4532212A, “Process for the dissolution of peptides in non-aqueous and mixed non-aqueous/aqueous systems” (Shell Oil Company, priority 1983, dated 1985).

Experiment: Immobilisation of protein/enzyme onto KRYPTOFIX 221B or […] polymer: protein loading
Conditions: 5 mg protein, KRYPTOFIX 221B 15 mg

**Q.** With “Cytochrome c: Cytochrome c from horse heart (Type III, from Sigma Chemical Co.), 104 residues” as the substance, how does the “mg of protein on support” value read?
**A.** The value was 1.58 mg.

**Q.** And the loading (g protein adsorbed / g support × 100)?
**A.** The loading was 10.5.
